Results taken from PubChem BioAssay AID504834 (National Center for Advancing Translational Sciences (NCATS), 2011).
The campaign covered roughly 320,000 compounds. About 22,000 (6.9%) were called active. Inconclusive means that the source gave no clear call. Such entries were picked first, then a sample of the others. Calls follow the shape of the dose curve; as a rule, active = well fitted inhibition curve with a large enough effect; inconclusive = small, poorly fitted or top-dose-only effect, or another doubt; inactive = no such curve, though single readings can be large or run the other way. A potency beside an inconclusive call is a rough fit, not a confirmed value.

assay: Primary qHTS for delayed death inhibitors of the malarial parasite plastid, 96 hour incubation; settings: P. falciparum luciferase reporter growth; series mostly up to 28.7 µM
How it was run: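 Compounds incubated with erythrocytes infected by luciferase-expressing P. falciparum (2% hematocrit, 0.05% parasitemia final) for 96 hours, 37 C in 5% CO2. Growth inhibition scored as decreased luciferase luminescence.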
Potency is read from the fitted curve at half-maximal effect.

Row | Structure (SMILES) | Potency
1 | CCCC(=O)N1CCC(CCC(=O)NC2CC2)CC1 | inactive
2 | CN(Cc1ccccc1)C(=O)CCC1CCN(C(=O)c2ccccc2C(F)(F)F)CC1 | inconclusive: 1.85 µM [inhibitor, full curve, poor fit]
3 | Cc1c(Br)c([N+](=O)[O-])nn1CC(=O)N1CCc2ccccc21 | inactive
4 | Cc1ccc(OCC(=O)N(Cc2ccco2)C2CCS(=O)(=O)C2)cc1 (stereo unspecified) | inconclusive: 5.22 µM [inhibitor, partial curve, poor fit]
5 | COc1ccc(/C=N/NC(=O)c2ccccc2O)cc1CN1CCOCC1 | inactive
6 | CN(C)C(C)(C)C#CCCCCC#CC(C)(C)N(C)C | inconclusive: 10.4 µM [inhibitor, partial curve, poor fit]
7 | CCCn1nc2cc(C(=O)NCc3ccccc3)ccc2c1OCC | inconclusive: 1.31 µM [inhibitor, partial curve, poor fit]
8 | CNC(=S)Nc1cccc(C(C)=O)c1 | inactive
9 | NC(=O)c1nsc(C(=O)N(c2ccccc2)C(C(=O)NCC2CCCO2)c2ccc(F)cc2)c1N (stereo unspecified) | inactive
10 | CCN(/N=C/C=C/c1ccccc1)c1cc(=O)n(C)c(=O)[nH]1 | active: 7.38 µM
11 | COc1cccc(NC(=O)Nc2ccc3nsnc3c2)c1 | inactive
12 | COc1ccc(CC(=O)NNc2ncnc3c2cnn3Cc2ccccc2)cc1OC | inconclusive: 10.4 µM [inhibitor, single point]
13 | S=C(Nc1ccccc1)Nc1nc2ccccc2n1CCOc1ccc(Cl)cc1 | active: 11.7 µM
14 | CC(=O)N1C(Nc2ccc(Cl)cc2)CCN1c1ccccc1 (stereo unspecified) | inconclusive: 16.5 µM [inhibitor, single point]
15 | O=S1(=O)CCO[C@H]2Cc3ccccc3[C@H]2N1Cc1ccccc1 | inconclusive: 4.15 µM [inhibitor, single point]
16 | CCOc1ccc(CN(C)C(=O)[C@H](Cc2ccccc2)NC(=O)OCc2ccccc2)cc1OC | inconclusive: 13.1 µM [inhibitor, single point]
17 | O=C(c1ccc(Cl)c([N+](=O)[O-])c1)N1CCN(S(=O)(=O)c2ccc(Cl)cc2)CC1 | inconclusive: 18.5 µM [inhibitor, single point]
18 | COc1ccc(N2C(=O)CC(Sc3nc(C)cc(C)n3)C2=O)cc1OC (stereo unspecified) | inconclusive: 18.5 µM [inhibitor, single point]
19 | COc1ccc(/C=N/n2cnnc2)cc1Oc1nc(Cl)ncc1F | inactive
20 | CCCN1C2CCCC1CC(NC(=S)Nc1cccc(C)c1C)C2 (stereo unspecified) | inconclusive: 6.57 µM [inhibitor, partial curve, poor fit]
21 | CCOCCCN1CN(S(=O)(=O)c2ccc(Cl)cc2)c2nc3ccccc3nc21 | inconclusive: 0.117 µM [inhibitor, full curve]
22 | CCC(=O)N1c2ccc(S(=O)(=O)N(CCO)Cc3ccccc3)cc2CC1C (stereo unspecified) | inconclusive: 6.57 µM [inhibitor, partial curve]
23 | Cc1cc([N+](=O)[O-])nn1CCCC(=O)NCc1ccc(F)cc1 | inconclusive: 18.5 µM [inhibitor, single point]
24 | CCCCN(C)C(=O)C1CCC(CNS(=O)(=O)c2ccc3c(c2)CC(C)N3C(C)=O)CC1 (stereo unspecified) | inconclusive: 18.5 µM [inhibitor, single point]

Single entries from above:
Entry of O=S1(=O)CCO[C@H]2Cc3ccccc3[C@H]2N1Cc1ccccc1 under Potency: inconclusive: 4.15 µM [inhibitor, single point]
Entry of CCCn1nc2cc(C(=O)NCc3ccccc3)ccc2c1OCC under Potency: inconclusive: 1.31 µM [inhibitor, partial curve, poor fit]

The list continues:

Row | Structure (SMILES) | Potency
25 | Cc1cc(=O)[nH]c(SCC(=O)c2ccc(C)c(C)c2)n1 | inactive
26 | COc1ccc(C2SCC(=O)N2Cc2ccccc2)cc1 (stereo unspecified) | inactive
27 | Cc1ccc(OCC(=O)Nc2ccc(F)cc2)c([N+](=O)[O-])n1 | inactive
28 | Cc1ncoc1C(=O)N1CCc2c([nH]c3ccccc23)C1c1ccccc1F (stereo unspecified) | inactive
29 | COC(=O)CN1C(CN2CCOCC2)=Nc2ccc(Br)cc2C1c1ccccc1 (stereo unspecified) | inconclusive: 13.1 µM [inhibitor, partial curve]
30 | COC(=O)CCCNC(=O)c1ccc2oc(CCCc3ccccc3)nc2c1 | inconclusive: 11.7 µM [inhibitor, single point]
31 | Cc1ccc(C(=O)CC(=O)COc2ccc(Cl)cc2C)cc1 | inactive
32 | O=c1[nH]c(SCc2ccccc2Cl)nc2c1cnn2-c1ccccc1 | inactive
33 | COc1ccc(C(=O)NC(=S)Nc2ccccc2F)cc1 | inconclusive: 4.15 µM [inhibitor, single point]
34 | O=C(NCCCN1CCCC1=O)c1cc(-c2ccc3c(c2)OCO3)nc2ccccc12 | inactive
35 | O=C(CC(=O)N/N=C/c1c(F)cccc1Cl)NCc1ccccc1 | inconclusive: 5.22 µM [inhibitor, partial curve]
36 | Fc1ccc(OCc2nn[nH]n2)c(F)c1 | inconclusive: 18.5 µM [inhibitor, single point]
37 | O=C(COC(=O)/C=C/c1ccc(Cl)cc1)Nc1ccc2c(c1)OCCO2 | inconclusive: 18.5 µM [inhibitor, single point]
38 | CCN1CCN(c2ccc(S(=O)(=O)N3CCOCC3)cc2NC(=O)/C=C/c2ccc([N+](=O)[O-])cc2)CC1 | active: 3.7 µM
39 | Cc1ccc(CSC2=NCCN2S(=O)(=O)c2ccc(F)cc2)cc1 | inactive
40 | Cn1cc(CCNC(=O)c2ccc3nc(Cc4ccccc4F)oc3c2)cn1 | active: 1.85 µM
41 | O=C(N/N=C\c1ccc(Cl)s1)c1cccs1 | inconclusive: 18.5 µM [inhibitor, single point]
42 | CN(C(=O)Cn1cnc([N+](=O)[O-])n1)C1CCCCC1 | inconclusive: 9.28 µM [inhibitor, partial curve]
43 | CO[C@@H]1[C@@H](OC(N)=O)[C@@H](O)C(Oc2ccc3c(O)c(NC(=O)c4ccc(O)c(CC=C(C)C)c4)c(=O)oc3c2C)OC1(C)C (stereo partly specified) | inconclusive: 18.5 µM [inhibitor, single point]
44 | Cc1nc(SC(C(=O)c2ccccc2)c2ccccc2)nc2ccccc12 (stereo unspecified) | inconclusive: 7.38 µM [inhibitor, single point]
45 | Cc1ccc(NCC(=O)N/N=C/c2ccc(OC(=O)c3ccco3)cc2)cc1 | inactive
46 | Cc1ccc(OCC(=O)Nc2cccc(-c3nnc(-c4ccccc4)o3)c2)c(C)c1 | inconclusive: 9.28 µM [inhibitor, partial curve, poor fit]
47 | C[C@@H]1CC=C[C@H]2[C@H]1C(=O)N(Cc1ccccc1)[C@H]2c1cccc([N+](=O)[O-])c1 | inconclusive: 10.4 µM [inhibitor, single point]
48 | CC(=O)NC1=NN(C(C)=O)C2(CCCC2)S1 | inconclusive: 0.0657 µM [inhibitor, full curve, poor fit]

Structures shown so far that contain an NH in an aromatic ring (5):
Row | Structure (SMILES) | Potency
10 | CCN(/N=C/C=C/c1ccccc1)c1cc(=O)n(C)c(=O)[nH]1 | active: 7.38 µM
25 | Cc1cc(=O)[nH]c(SCC(=O)c2ccc(C)c(C)c2)n1 | inactive
28 | Cc1ncoc1C(=O)N1CCc2c([nH]c3ccccc23)C1c1ccccc1F (stereo unspecified) | inactive
32 | O=c1[nH]c(SCc2ccccc2Cl)nc2c1cnn2-c1ccccc1 | inactive
36 | Fc1ccc(OCc2nn[nH]n2)c(F)c1 | inconclusive: 18.5 µM [inhibitor, single point]

The results go on.

Row | Structure (SMILES) | Potency
49 | Cc1ccc(N2C(=O)NC(C(F)(F)F)(C(F)(F)F)C3=C2CC(C)(C)CC3=O)cc1 | inconclusive: 2.62 µM [inhibitor, full curve, poor fit]
50 | NC(=O)c1nnn(-c2cccc(C(F)(F)F)c2)c1-c1ccccc1 | inactive
51 | CC(C)(C)N/N=C/c1cc(Cl)cc([N+](=O)[O-])c1O | inconclusive: 18.5 µM [inhibitor, single point]
52 | O=C(Nc1ccc(Cl)c(Cl)c1)Nc1ccon1 | inactive
53 | Cc1ccccc1CCNC(=O)C1CCN(S(=O)(=O)c2ccc(-n3cnnn3)cc2)CC1 | active: 13.1 µM
54 | C=C1CCN([C@H](C(=O)Nc2ccc(OC)cc2)C(C)C)S(=O)(=O)c2ccccc21 | inconclusive: 18.5 µM [inhibitor, single point]
55 | COc1ccc([N+](=O)[O-])cc1NCC(=O)Nc1cc(S(=O)(=O)N2CCCCC2)ccc1C | inconclusive: 16.5 µM [inhibitor, single point]
56 | CN(C)C(=O)OCc1c(-c2ccccc2)ncc2ccccc12 | inconclusive: 16.5 µM [inhibitor, single point]
57 | O=C(C1=C[C@@H](c2ccc3c(c2)OCO3)C[C@@H](OCCCCO)O1)N1CCOCC1 | inconclusive: 18.5 µM [inhibitor, single point]
58 | CCN=C1S/C(=C\c2ccc(-c3cccc(C(=O)O)c3)o2)C(=O)N1CC | inactive
59 | COc1cc(C#N)c(NC(=S)N2CCOCC2)cc1OC | inactive
60 | CCOC(=O)c1c(-c2ccc(C)o2)csc1N | inactive
61 | CCCCCN(C(=O)CCC(=O)OCc1cccc(Br)c1)c1c(N)n(CCCC)c(=O)[nH]c1=O | inconclusive: 9.28 µM [inhibitor, partial curve, poor fit]
62 | CC(C)c1ccc2c(c1)C1(NN=C(c3ccccc3)S1)C(=O)N2 (stereo unspecified) | inconclusive: 18.5 µM [inhibitor, single point]
63 | COc1ccc(COc2cc(-c3cccc(OC)c3)nc3ccc(NC(=O)c4ccccc4)cc23)cc1 | active: 11.7 µM
64 | CCn1c(SCC(=O)c2ccc(Cl)cc2)nnc1C(C)C | inconclusive: 13.1 µM [inhibitor, single point]
65 | COc1ccc(C2/C(=C(\O)c3ccc4c(c3)OCCO4)C(=O)C(=O)N2Cc2cccnc2)cc1OC (stereo unspecified) | inconclusive: 11.7 µM [inhibitor, single point]
66 | COc1ccc(C(=O)NC2CCN(C(=S)Nc3cc(C)cc(C)c3)CC2)cc1 | inconclusive: 0.0104 µM [inhibitor, full curve]
67 | N#C/C(=C\Nc1ccc2cn[nH]c2c1)c1nc(-c2ccccc2)cs1 | inconclusive: 9.28 µM [inhibitor, single point]
68 | CCCCNC(=O)CC(=O)Nc1ccccc1C(=O)O | inactive
69 | CC(C)(C)c1ccc(C(=O)Nc2cccnc2)cc1 | inactive
70 | CCOC(=O)c1c(C)c(C(=O)N2CCN(c3cccc(Cl)c3)CC2)c(C)n1C | inconclusive: 14.7 µM [inhibitor, single point]
71 | Clc1ccc(-c2cn3c(n2)CCC3)cc1 | inactive
